{
  "sequences": {"note": "Amino acid sequences for entries named in this document (tags omitted). A change or cut given only in a name is not applied to a line headed by its entry.", "UniProt Q15084": "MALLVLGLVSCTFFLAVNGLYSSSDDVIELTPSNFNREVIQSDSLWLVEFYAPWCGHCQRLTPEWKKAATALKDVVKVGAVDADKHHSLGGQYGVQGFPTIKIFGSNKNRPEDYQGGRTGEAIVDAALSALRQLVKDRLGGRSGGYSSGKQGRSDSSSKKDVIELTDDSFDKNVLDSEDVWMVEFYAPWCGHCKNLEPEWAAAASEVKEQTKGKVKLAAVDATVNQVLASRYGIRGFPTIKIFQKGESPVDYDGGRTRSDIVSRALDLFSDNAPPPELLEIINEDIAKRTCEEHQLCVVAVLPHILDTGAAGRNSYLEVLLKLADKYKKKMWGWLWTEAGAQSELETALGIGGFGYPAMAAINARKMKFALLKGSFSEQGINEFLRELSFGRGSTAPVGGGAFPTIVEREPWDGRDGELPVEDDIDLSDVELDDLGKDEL", "UniProt P12004, whole entry, looked up": "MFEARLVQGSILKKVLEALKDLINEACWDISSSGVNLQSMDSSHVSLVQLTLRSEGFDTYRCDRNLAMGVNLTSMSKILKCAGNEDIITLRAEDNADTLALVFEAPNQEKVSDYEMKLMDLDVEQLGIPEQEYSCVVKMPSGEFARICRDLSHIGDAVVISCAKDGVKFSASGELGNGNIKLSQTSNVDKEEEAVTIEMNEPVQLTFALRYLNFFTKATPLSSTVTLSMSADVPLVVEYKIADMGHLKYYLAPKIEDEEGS", "UniProt Q14690": "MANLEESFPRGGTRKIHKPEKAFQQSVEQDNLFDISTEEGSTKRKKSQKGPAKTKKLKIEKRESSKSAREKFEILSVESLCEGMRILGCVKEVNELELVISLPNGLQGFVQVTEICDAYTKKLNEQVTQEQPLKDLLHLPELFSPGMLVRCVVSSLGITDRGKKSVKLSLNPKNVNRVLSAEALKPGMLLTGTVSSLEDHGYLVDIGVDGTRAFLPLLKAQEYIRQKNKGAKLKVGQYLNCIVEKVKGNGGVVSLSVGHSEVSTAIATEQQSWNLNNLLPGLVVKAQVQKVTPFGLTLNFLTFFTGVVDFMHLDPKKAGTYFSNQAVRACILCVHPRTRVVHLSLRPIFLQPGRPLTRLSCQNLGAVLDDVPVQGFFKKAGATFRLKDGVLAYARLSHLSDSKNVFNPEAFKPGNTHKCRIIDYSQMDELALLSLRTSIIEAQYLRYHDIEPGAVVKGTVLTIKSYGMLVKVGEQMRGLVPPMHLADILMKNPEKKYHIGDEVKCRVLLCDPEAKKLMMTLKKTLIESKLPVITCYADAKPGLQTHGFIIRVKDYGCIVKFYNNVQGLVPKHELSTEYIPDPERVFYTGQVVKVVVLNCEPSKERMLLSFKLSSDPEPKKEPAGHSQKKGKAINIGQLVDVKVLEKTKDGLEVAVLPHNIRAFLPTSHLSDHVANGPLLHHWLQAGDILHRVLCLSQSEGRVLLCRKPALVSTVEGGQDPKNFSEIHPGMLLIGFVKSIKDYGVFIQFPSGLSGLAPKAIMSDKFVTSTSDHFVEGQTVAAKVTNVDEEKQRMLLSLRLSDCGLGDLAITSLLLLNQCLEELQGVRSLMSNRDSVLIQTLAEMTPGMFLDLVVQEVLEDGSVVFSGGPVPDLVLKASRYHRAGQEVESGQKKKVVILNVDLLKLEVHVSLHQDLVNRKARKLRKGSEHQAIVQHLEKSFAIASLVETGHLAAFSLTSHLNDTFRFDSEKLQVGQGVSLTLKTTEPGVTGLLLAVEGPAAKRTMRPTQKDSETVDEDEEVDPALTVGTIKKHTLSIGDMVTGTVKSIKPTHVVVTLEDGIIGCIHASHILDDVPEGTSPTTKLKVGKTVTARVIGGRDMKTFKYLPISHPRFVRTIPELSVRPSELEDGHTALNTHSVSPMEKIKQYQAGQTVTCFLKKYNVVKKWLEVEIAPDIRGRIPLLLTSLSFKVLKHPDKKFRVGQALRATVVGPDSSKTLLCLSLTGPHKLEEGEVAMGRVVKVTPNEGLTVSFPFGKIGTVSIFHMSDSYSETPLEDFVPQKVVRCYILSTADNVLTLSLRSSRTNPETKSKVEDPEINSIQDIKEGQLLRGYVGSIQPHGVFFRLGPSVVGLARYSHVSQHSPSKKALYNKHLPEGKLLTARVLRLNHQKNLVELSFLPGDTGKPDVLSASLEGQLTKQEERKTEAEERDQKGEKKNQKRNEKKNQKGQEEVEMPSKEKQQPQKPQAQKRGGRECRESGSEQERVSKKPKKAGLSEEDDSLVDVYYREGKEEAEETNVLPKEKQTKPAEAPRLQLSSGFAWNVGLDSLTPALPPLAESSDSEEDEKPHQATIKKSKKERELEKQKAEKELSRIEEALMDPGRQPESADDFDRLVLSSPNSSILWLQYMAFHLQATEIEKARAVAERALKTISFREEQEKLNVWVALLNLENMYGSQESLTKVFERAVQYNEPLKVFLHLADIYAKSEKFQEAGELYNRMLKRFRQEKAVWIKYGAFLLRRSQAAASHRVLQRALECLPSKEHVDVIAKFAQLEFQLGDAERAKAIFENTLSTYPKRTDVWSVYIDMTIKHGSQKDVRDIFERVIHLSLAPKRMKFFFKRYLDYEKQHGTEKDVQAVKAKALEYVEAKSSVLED", "UniProt Q5JVF3": "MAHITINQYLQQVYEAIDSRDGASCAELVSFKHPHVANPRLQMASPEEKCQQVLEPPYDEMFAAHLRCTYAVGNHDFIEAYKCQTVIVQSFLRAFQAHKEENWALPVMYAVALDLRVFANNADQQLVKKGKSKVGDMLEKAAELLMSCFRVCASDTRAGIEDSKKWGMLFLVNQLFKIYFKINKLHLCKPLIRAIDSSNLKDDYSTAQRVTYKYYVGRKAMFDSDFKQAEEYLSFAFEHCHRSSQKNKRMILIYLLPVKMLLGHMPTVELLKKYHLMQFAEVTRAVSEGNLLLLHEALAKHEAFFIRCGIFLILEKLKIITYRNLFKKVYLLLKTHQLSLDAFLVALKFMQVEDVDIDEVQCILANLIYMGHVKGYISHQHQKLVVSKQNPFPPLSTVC", "UniProt P05165": "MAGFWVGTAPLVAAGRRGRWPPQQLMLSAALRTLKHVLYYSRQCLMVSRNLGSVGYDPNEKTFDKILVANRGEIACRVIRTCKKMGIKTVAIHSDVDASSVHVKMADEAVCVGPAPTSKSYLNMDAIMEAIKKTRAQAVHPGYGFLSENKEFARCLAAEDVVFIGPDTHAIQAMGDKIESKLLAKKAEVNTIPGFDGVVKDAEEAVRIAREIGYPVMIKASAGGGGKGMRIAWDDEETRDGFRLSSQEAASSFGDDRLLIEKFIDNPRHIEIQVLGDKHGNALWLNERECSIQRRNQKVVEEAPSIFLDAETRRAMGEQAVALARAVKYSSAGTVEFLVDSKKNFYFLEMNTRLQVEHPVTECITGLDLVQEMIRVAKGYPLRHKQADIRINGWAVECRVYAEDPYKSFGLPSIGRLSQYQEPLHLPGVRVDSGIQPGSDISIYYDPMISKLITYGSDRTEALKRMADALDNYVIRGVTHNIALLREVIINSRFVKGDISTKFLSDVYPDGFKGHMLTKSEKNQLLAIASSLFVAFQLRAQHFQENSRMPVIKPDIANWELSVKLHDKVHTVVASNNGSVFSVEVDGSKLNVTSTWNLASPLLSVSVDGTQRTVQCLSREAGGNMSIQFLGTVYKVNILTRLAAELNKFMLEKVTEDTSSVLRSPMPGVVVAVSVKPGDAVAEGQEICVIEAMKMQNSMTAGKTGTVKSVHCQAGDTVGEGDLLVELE", "UniProt Q9BVG4": "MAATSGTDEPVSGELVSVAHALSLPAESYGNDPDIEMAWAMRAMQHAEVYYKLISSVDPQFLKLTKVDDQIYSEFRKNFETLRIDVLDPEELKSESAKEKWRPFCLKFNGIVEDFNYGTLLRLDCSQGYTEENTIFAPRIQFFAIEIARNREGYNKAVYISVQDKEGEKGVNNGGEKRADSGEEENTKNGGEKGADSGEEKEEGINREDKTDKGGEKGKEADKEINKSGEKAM", "UniProt Q16822, whole entry, looked up": "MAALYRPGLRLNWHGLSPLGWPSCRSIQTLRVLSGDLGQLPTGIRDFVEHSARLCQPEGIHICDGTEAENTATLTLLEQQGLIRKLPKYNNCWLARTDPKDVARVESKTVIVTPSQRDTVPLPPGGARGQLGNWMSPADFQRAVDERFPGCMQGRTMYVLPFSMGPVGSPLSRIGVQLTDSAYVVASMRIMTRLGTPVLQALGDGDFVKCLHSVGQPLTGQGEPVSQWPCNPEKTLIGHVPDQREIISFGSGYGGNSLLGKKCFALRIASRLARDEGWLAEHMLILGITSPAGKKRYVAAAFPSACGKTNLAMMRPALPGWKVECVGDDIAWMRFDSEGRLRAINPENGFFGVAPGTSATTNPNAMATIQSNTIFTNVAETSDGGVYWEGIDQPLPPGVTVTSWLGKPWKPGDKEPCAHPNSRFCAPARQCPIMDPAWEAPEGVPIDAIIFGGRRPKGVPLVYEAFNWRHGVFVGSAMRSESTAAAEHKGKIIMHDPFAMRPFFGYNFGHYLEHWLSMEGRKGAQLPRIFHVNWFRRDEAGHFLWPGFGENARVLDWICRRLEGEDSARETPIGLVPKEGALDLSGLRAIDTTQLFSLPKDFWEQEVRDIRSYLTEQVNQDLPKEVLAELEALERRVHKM", "UniProt Q9BUH6, whole entry, looked up": "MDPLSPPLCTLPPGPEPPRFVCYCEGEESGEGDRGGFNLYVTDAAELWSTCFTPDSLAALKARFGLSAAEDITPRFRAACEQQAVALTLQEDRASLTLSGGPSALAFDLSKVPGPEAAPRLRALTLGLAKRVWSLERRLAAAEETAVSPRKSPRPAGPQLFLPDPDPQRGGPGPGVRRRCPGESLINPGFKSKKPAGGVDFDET", "UniProt Q29RF7": "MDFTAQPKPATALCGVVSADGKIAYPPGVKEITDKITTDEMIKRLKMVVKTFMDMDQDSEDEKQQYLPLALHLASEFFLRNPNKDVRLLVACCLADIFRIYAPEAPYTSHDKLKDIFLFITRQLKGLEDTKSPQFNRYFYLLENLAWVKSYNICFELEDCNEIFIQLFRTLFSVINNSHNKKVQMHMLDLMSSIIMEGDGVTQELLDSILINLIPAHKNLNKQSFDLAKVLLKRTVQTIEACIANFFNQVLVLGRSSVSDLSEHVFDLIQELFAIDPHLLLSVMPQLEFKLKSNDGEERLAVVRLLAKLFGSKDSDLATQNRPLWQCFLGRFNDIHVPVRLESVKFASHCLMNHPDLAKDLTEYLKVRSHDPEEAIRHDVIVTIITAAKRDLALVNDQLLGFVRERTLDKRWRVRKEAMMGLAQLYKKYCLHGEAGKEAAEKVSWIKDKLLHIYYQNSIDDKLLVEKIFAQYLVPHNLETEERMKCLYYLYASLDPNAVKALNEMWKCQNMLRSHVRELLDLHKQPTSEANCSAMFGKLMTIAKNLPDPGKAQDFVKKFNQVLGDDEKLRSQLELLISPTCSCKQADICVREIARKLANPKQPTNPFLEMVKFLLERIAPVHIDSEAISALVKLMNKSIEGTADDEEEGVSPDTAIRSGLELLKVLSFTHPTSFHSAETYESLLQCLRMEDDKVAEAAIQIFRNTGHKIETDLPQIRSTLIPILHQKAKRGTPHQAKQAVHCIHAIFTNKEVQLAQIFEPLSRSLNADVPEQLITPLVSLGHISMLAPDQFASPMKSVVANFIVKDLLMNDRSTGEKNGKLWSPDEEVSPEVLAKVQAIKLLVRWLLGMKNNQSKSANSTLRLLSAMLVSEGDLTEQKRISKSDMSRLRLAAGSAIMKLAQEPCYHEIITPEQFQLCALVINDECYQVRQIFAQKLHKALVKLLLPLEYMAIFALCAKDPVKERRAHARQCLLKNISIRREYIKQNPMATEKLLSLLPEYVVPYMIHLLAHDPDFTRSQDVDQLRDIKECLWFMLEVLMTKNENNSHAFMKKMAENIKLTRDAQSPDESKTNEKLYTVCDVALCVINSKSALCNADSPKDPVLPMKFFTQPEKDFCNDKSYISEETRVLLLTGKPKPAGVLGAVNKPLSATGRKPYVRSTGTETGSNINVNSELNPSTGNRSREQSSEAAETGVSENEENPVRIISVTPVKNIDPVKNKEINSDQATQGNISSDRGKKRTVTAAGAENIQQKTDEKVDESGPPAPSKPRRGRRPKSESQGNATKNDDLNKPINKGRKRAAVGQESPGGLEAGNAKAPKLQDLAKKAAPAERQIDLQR", "UniProt Q53EL6": "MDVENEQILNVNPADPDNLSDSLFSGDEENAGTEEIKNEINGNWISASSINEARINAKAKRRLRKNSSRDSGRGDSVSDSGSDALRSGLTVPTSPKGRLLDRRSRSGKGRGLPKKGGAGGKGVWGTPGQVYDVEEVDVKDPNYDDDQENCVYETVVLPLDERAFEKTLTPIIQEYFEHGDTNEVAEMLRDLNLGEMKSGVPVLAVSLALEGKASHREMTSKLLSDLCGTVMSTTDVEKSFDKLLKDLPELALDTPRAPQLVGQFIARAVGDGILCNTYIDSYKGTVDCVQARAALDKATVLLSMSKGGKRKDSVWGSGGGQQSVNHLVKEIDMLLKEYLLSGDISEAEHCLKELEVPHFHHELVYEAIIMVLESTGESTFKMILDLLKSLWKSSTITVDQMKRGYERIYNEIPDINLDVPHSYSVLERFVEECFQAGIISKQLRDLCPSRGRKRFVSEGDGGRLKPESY"},
  "source": "the supplement of paper PMC12067093",
  "about": "“Discovery and optimisation of a covalent ligand for TRIM25 and its application to targeted protein ubiquitination” (Chemical Science, 2025)",
  "compound": "CC1Cc2ccccc2N1C(=O)C1CCCN(C1)C(=O)CCl (mixture of isomers) [TRIM25 ligand 11 (diastereomer mixture)]",
  "assay": "probe-labelled cysteine peptide fold change vs DMSO (competition) (log2 fold change); higher = less target engagement (more negative = stronger competition)",
  "details": "THP-1, incubation time: 4 h",
  "note": "Some of the results follow.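 Also: competitive chemoproteomic profiling in live THP-1 cells with an iodoacetamide desthiobiotin (IA-DTB) probe, comparing probe-labelled peptide intensities in compound-treated cells against DMSO-treated controls.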",
  "data": [
    {"target": "PDHB_P11177_263_EGVECEVINMR (UniProt P11177)", "values": [
      {"measurement": "probe-labelled cysteine peptide fold change", "setting": "10 µM", "value": -0.0245},
      {"measurement": "probe-labelled cysteine peptide fold change", "setting": "50 µM", "value": -0.125}
    ]},
    {"target": "PARP8_Q8N3A8_27_DCLFADFR (UniProt Q8N3A8)", "values": [
      {"measurement": "probe-labelled cysteine peptide fold change", "setting": "10 µM", "value": 0.00802},
      {"measurement": "probe-labelled cysteine peptide fold change", "setting": "50 µM", "value": -0.0304}
    ]},
    {"target": "PDIA6_Q15084_291_RTCEEHQLCVVAVLPHILDTGAAGR (UniProt Q15084)", "values": [
      {"measurement": "probe-labelled cysteine peptide fold change", "setting": "10 µM", "value": -0.0137},
      {"measurement": "probe-labelled cysteine peptide fold change", "setting": "50 µM", "value": 0.146}
    ]},
    {"target": "PCNA_P12004_135_LMDLDVEQLGIPEQEYSCVVK (UniProt P12004)", "values": [
      {"measurement": "probe-labelled cysteine peptide fold change", "setting": "10 µM", "value": -0.113},
      {"measurement": "probe-labelled cysteine peptide fold change", "setting": "50 µM", "value": 0.0916}
    ]},
    {"target": "PDIA6_Q15084_291+297_TCEEHQLCVVAVLPHILDTGAAGR (UniProt Q15084)", "values": [
      {"measurement": "probe-labelled cysteine peptide fold change", "setting": "10 µM", "value": 0.0199},
      {"measurement": "probe-labelled cysteine peptide fold change", "setting": "50 µM", "value": 0.0826}
    ]},
    {"target": "PDCD11_Q14690_557_DYGCIVK (UniProt Q14690)", "values": [
      {"measurement": "probe-labelled cysteine peptide fold change", "setting": "10 µM", "value": 0.00725},
      {"measurement": "probe-labelled cysteine peptide fold change", "setting": "50 µM", "value": 0.196}
    ]},
    {"target": "PBX1_P40424_172_YEQACNEFTTHVMNLLR (UniProt P40424)", "values": [
      {"measurement": "probe-labelled cysteine peptide fold change", "setting": "10 µM", "value": -0.0704},
      {"measurement": "probe-labelled cysteine peptide fold change", "setting": "50 µM", "value": -0.00549}
    ]},
    {"target": "PCF11_O94913_102_NLVATFICVFEK (UniProt O94913)", "values": [
      {"measurement": "probe-labelled cysteine peptide fold change", "setting": "10 µM", "value": 0.0152},
      {"measurement": "probe-labelled cysteine peptide fold change", "setting": "50 µM", "value": 0.0398}
    ]},
    {"target": "PCID2_Q5JVF3_152_VCASDTR (UniProt Q5JVF3)", "values": [
      {"measurement": "probe-labelled cysteine peptide fold change", "setting": "10 µM", "value": 0.185},
      {"measurement": "probe-labelled cysteine peptide fold change", "setting": "50 µM", "value": 0.222}
    ]},
    {"target": "PCCA_P05165_398_INGWAVECR (UniProt P05165)", "values": [
      {"measurement": "probe-labelled cysteine peptide fold change", "setting": "10 µM", "value": 0.178},
      {"measurement": "probe-labelled cysteine peptide fold change", "setting": "50 µM", "value": 0.32}
    ]},
    {"target": "PDE3B_Q13370_475_RPHQEFGISSQGCYLNGPFNSNLLTIPK (UniProt Q13370)", "values": [
      {"measurement": "probe-labelled cysteine peptide fold change", "setting": "10 µM", "value": 0.118},
      {"measurement": "probe-labelled cysteine peptide fold change", "setting": "50 µM", "value": -0.381}
    ]},
    {"target": "PDIA3_P30101_57_ISDTGSAGLMLVEFFAPWCGHCK (UniProt P30101)", "values": [
      {"measurement": "probe-labelled cysteine peptide fold change", "setting": "10 µM", "value": -0.0542},
      {"measurement": "probe-labelled cysteine peptide fold change", "setting": "50 µM", "value": -0.235}
    ]},
    {"target": "PDLIM1_O00151_289_HPECYVCTDCGTNLK (UniProt O00151)", "values": [
      {"measurement": "probe-labelled cysteine peptide fold change", "setting": "10 µM", "value": 0.0913},
      {"measurement": "probe-labelled cysteine peptide fold change", "setting": "50 µM", "value": 0.0265}
    ]},
    {"target": "PBDC1_Q9BVG4_125_LDCSQGYTEENTIFAPR (UniProt Q9BVG4)", "values": [
      {"measurement": "probe-labelled cysteine peptide fold change", "setting": "10 µM", "value": 0.123},
      {"measurement": "probe-labelled cysteine peptide fold change", "setting": "50 µM", "value": 0.233}
    ]},
    {"target": "PDCL3_Q9H2J4_127_QGIPLCALINQHLSGLAR (UniProt Q9H2J4)", "values": [
      {"measurement": "probe-labelled cysteine peptide fold change", "setting": "10 µM", "value": 0.249},
      {"measurement": "probe-labelled cysteine peptide fold change", "setting": "50 µM", "value": 0.149}
    ]},
    {"target": "PDLIM2_Q96JY6_289_CSTSIANQAVR (UniProt Q96JY6)", "values": [
      {"measurement": "probe-labelled cysteine peptide fold change", "setting": "10 µM", "value": 0.0403},
      {"measurement": "probe-labelled cysteine peptide fold change", "setting": "50 µM", "value": 0.178}
    ]},
    {"target": "PDCD11_Q14690_1218_TLLCLSLTGPHK (UniProt Q14690)", "values": [
      {"measurement": "probe-labelled cysteine peptide fold change", "setting": "10 µM", "value": -0.113},
      {"measurement": "probe-labelled cysteine peptide fold change", "setting": "50 µM", "value": -0.108}
    ]},
    {"target": "PCK2_Q16822_559_VLDWICR (UniProt Q16822)", "values": [
      {"measurement": "probe-labelled cysteine peptide fold change", "setting": "10 µM", "value": -0.0267},
      {"measurement": "probe-labelled cysteine peptide fold change", "setting": "50 µM", "value": 0.0547}
    ]},
    {"target": "PDCD2_Q16342_281_DIPDCPCGAK (UniProt Q16342)", "values": [
      {"measurement": "probe-labelled cysteine peptide fold change", "setting": "10 µM", "value": -0.0281},
      {"measurement": "probe-labelled cysteine peptide fold change", "setting": "50 µM", "value": -0.0259}
    ]},
    {"target": "PAXIP1_Q6ZW49_136_CTHLIVPEPK (UniProt Q6ZW49)", "values": [
      {"measurement": "probe-labelled cysteine peptide fold change", "setting": "10 µM", "value": 0.233},
      {"measurement": "probe-labelled cysteine peptide fold change", "setting": "50 µM", "value": 0.288}
    ]},
    {"target": "PCK2_Q16822_325_VECVGDDIAWMR (UniProt Q16822)", "values": [
      {"measurement": "probe-labelled cysteine peptide fold change", "setting": "10 µM", "value": 0.00283},
      {"measurement": "probe-labelled cysteine peptide fold change", "setting": "50 µM", "value": 0.0334}
    ]},
    {"target": "PCNA_P12004_162_DLSHIGDAVVISCAK (UniProt P12004)", "values": [
      {"measurement": "probe-labelled cysteine peptide fold change", "setting": "10 µM", "value": -0.00138},
      {"measurement": "probe-labelled cysteine peptide fold change", "setting": "50 µM", "value": 0.0679}
    ]},
    {"target": "PAXX_Q9BUH6_180_CPGESLINPGFK (UniProt Q9BUH6)", "values": [
      {"measurement": "probe-labelled cysteine peptide fold change", "setting": "10 µM", "value": -0.17},
      {"measurement": "probe-labelled cysteine peptide fold change", "setting": "50 µM", "value": -0.517}
    ]},
    {"target": "PDS5A_Q29RF7_1084_LYTVCDVALCVINSK (UniProt Q29RF7)", "values": [
      {"measurement": "probe-labelled cysteine peptide fold change", "setting": "10 µM", "value": -0.0741},
      {"measurement": "probe-labelled cysteine peptide fold change", "setting": "50 µM", "value": -0.0435}
    ]},
    {"target": "PBRM1_Q86U86_1224+1228_EVFLSNLEETCPMTCILGK (UniProt Q86U86)", "values": [
      {"measurement": "probe-labelled cysteine peptide fold change", "setting": "10 µM", "value": -0.101},
      {"measurement": "probe-labelled cysteine peptide fold change", "setting": "50 µM", "value": -0.263}
    ]},
    {"target": "PASK_Q96RG2_991_AVELEGLAACEGEYSQK (UniProt Q96RG2)", "values": [
      {"measurement": "probe-labelled cysteine peptide fold change", "setting": "10 µM", "value": -0.131},
      {"measurement": "probe-labelled cysteine peptide fold change", "setting": "50 µM", "value": -0.219}
    ]},
    {"target": "PDIA6_Q15084_190_NVLDSEDVWMVEFYAPWCGHCK (UniProt Q15084)", "values": [
      {"measurement": "probe-labelled cysteine peptide fold change", "setting": "10 µM", "value": -0.195},
      {"measurement": "probe-labelled cysteine peptide fold change", "setting": "50 µM", "value": -0.516}
    ]},
    {"target": "PDCD4_Q53EL6_227_LLSDLCGTVMSTTDVEK (UniProt Q53EL6)", "values": [
      {"measurement": "probe-labelled cysteine peptide fold change", "setting": "10 µM", "value": -0.0152},
      {"measurement": "probe-labelled cysteine peptide fold change", "setting": "50 µM", "value": 0.0253}
    ]},
    {"target": "PDS5A_Q29RF7_742_QAVHCIHAIFTNK (UniProt Q29RF7)", "values": [
      {"measurement": "probe-labelled cysteine peptide fold change", "setting": "10 µM", "value": 0.0829},
      {"measurement": "probe-labelled cysteine peptide fold change", "setting": "50 µM", "value": 0.122}
    ]}
  ]
}
